According to PubChem BioAssay AID488835 (Broad Institute, 2010):
In all, about 1,400 compounds went through this assay and about 140 (10%) were called active.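 Rule for the calls: active = Half-maximal inhibitory dose from the fit at or below ten times the top valid tested dose; inconclusive = Invalid fit, or flat curve showing 30 to 70% inhibition; inactive = the rest.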 Only a part is listed here, and it is no random draw. Measured potencies and affinities stand elsewhere.

Chains of the proteins cited; added tags and fusions are not shown. Residues count along the entry.
UniProt Q9H3R0, 1-420 limits assumed: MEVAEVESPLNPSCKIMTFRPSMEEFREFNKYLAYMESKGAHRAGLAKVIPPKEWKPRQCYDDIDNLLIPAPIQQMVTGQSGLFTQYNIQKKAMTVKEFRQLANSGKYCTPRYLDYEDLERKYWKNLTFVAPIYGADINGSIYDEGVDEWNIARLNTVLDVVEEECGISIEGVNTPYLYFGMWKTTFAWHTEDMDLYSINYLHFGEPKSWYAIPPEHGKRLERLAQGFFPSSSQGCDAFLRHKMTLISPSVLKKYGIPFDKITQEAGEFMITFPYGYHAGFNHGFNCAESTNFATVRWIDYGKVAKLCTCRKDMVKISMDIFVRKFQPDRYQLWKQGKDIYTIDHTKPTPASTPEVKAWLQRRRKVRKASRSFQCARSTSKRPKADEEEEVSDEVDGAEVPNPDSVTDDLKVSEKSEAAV

target: Lysine-specific demethylase 4C (Homo sapiens) (UniProt Q9H3R0); assay: inhibition of JMJD2C H3K9me3 demethylation – biochemical, DELFIA europium, cherry-picked samples, dose response (AID 488835); conditions: GST-JMJD2C(1-420); at 6 µM (top of the series) unless noted;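 note: signal is the H3K9me2 demethylation product detected by a dimethyl-specific antibody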

Activity change, negative = inhibition, inactive:
C[C@H]1CN([C@@H](C)CO)C(=O)c2cc(NC(=O)C3CCCCC3)ccc2O[C@H]1CN(C)S(=O)(=O)c1ccccc1 2.4%
CCCn1nnnc1SCC(=O)NCc1ccc2c(c1)OCO2 17.8%
COc1ccccc1Nc1ncnc2ccccc12 7.2%
Cc1ccsc1C(=O)OCc1nc2ccccc2c(=O)[nH]1 0.601%
COc1ccc(Nc2cccc(Cl)c2)c(C(=O)O)c1 -1.94%
COC(=O)[C@]1(C)N[C@H](CN(C)C(=O)Nc2ccc(F)cc2)[C@@H]2C(=O)N(C)C(=O)[C@@H]21 -4.55%
CC(C)NC(=O)Nc1ccc2c(c1)C(=O)N([C@H](C)CO)C[C@H](C)[C@@H](CN(C)C(=O)Nc1ccccc1)O2 3.67%
C[C@@H](CN1CCC[C@H]1CN1C(N)=NC[C@@H]1Cc1ccccc1)N1C[C@@H](Cc2ccccc2)N(CCc2ccc(Cl)c(Cl)c2)C1=N -5.78%
Cc1cccc(-n2c(SCC(=O)Nc3ccc4c(c3)OCO4)nnc2-c2ccoc2C)c1 2.45%
Cc1ccc(C(=O)NCc2ccco2)cc1Br -7.8%
N#Cc1ccc(C23OCCN2CCn2nc4ccccc4c23)cc1 (stereo not given) -1.41%
O=C(O)CCCC(=O)Nc1ccc(C(=O)NCc2cccnc2)cc1 3.5%
O=C(Cc1ccccc1Cl)N1CCN(c2ccccn2)CC1 7.57%
Cc1nc2c3cc(F)ccc3n(Cc3ccccc3)c2s1 0.346%
Cc1nnnn1/C(=C\c1ccccc1)C(=O)OCC(=O)NC(C)(C)C 4.63%
O=C(Nc1ccccc1)N1CCSCC1 8.02%
COc1ccc(OC)c(/C=C/C(=O)Nc2cccc(S(=O)(=O)NC3=NCCCCC3)c2)c1 13.8%
C[C@H](CO)N1C[C@H](C)[C@@H](CN(C)S(=O)(=O)c2ccccc2)Oc2ccc(NS(=O)(=O)c3ccc(F)cc3)cc2C1=O -0.626%
O=C(Nc1ccccc1)N(O)c1ccc(Cl)cc1 -3.7%
CS(=O)(=O)N(CC(=O)N1CCCCCC1)c1ccccc1 5.77%
CSc1ccccc1C(=O)Nc1ccc(C)c(C)c1 2.16%
CN1CCN(Cc2c(C#N)c3ccccc3n2C)CC1 2.97%
COc1ccc(C2C(C#N)=C(N)Oc3c2sc2nc(C)cc(C)c32)cc1 (stereo not given) 4.79%
Cc1cc2c(cc1C)NC(CC(=O)NCc1ccccc1)C(=O)N2 (stereo not given) 8.71%
CCCCNC(=O)c1nn2cc(Br)cnc2c1Br -2.06%
COc1ccc(C(=O)NCc2cccnc2)cc1S(=O)(=O)N1CCOCC1 4.76%
COc1cccc(CSc2nnc(C(F)(F)F)n2Cc2ccc(F)cc2)c1 -2.62%
O=C(COc1ccc(NC(=O)c2ccccc2)cc1)c1ccccc1 2.44%
CC(C)C[C@H](NC(=O)N1CCCCCC1)C(=O)O 5.35%
O=C1c2sc3nc4c(c(=O)n3c2C(=O)N1c1ccccc1)CCC4 4.3%
O=C1NCCN1CCNS(=O)(=O)c1ccccc1[N+](=O)[O-] 5.4%
Cc1cc(C)n(-c2nnc(C)n2/N=C/c2ccco2)n1 -0.704%
O=Cc1ccc(C(=O)OCC(=O)Nc2ccc(F)cc2F)cc1 6.41%
O=C(CC1NC(=O)NC1=O)Nc1ccccc1 (stereo not given) 0.477%
CC(C)(C)NNC(=S)Nc1cccc(C(F)(F)F)c1 -0.508%
COC(=O)c1sc(S(=O)(=O)NCc2ccccc2)c(C(=O)OC)c1C 0.554%
COc1ccc(C2/C(=C(/O)c3ccccc3)C(=O)C(=O)N2CCN2CCOCC2)c(OC)c1 (stereo not given) 5.45%
CCCN1C(=O)c2ccc(C(=O)Nc3cc(C)ccc3O)cc2C1=O 12.9%
O=C(NC1CCCc2ccccc21)c1ccc(Br)cc1 (stereo not given) -1.06%
O=C(c1ccncc1)N1N=C(C2CCCCC2)CC1(O)C(F)(F)F (stereo not given) 3.04% [at 1.6 µM]
COc1ccc(CN(Cc2nc3ccccc3c(=O)[nH]2)C(=O)NC2CCCCC2)cc1 -0.777%
c1ccc(-c2ccccc2OCCN2CCCC2)cc1 1.49%
N=c1nc(-c2ccccc2)ccn1O -3.32%
CCOc1ccc(CN2CCN(Cc3nc(C(C)C)cs3)CC2CCO)cc1 (stereo not given) 6.09%
CCOC(=O)c1sc(NC(=O)CSc2nnc(-c3ccc(OC)cc3)n2CCOC)nc1C -4.16%
CC(=O)c1c(C(C)=O)c(C)n(-c2nc(-c3cccs3)c(C)s2)c1C -10.4%
COc1ccc(-c2nn(-c3ccccc3)cc2CNC(C)Cn2cncn2)c(F)c1 (stereo not given) -4.46%
O=C(Nc1nnc(CCS(=O)(=O)c2ccc3ccccc3c2)s1)c1cccs1 5.42%
O=C(c1ccc(Cn2cc([N+](=O)[O-])cn2)o1)N1CCCCCC1 -3.94%
CC1=C(C(=O)OC(C)C)C(c2ccccc2)NC(=S)N1C (stereo not given) 2.61%
CSc1nc(N)nc2c1ncn2CC(=O)N[C@H](C)c1cccc2ccccc12 5.54%
O=C(CCc1ccc(S(=O)(=O)NCc2ccccc2)cc1)NCc1ccc2c(c1)OCO2 -1.2%
C[C@H]1CN(CCc2ccccc2)C(=O)[C@@H]1CC(=O)NCc1ccccc1 -0.438%
CCOc1ccc(C(=O)Nc2nnc(C(C)C)s2)cc1OCC -2.14%
CC(C)(C)c1ccc(S(=O)(=O)/N=C2\C=C(NS(=O)(=O)c3ccccc3)C(=O)c3ccccc32)cc1 -10.3%
CCC(C)(C(=O)NC1CCCC1)N(Cc1cccs1)C(C)=O (stereo not given) 1.51%
Cc1[nH]n2c(=O)c3c(nc2c1-c1ccccc1)CCCC3 -5.83%
C[C@H]1CN([C@@H](C)CO)C(=O)c2cc(NS(=O)(=O)c3ccc(Cl)cc3)ccc2O[C@@H]1CN(C)CC1CCCCC1 5.89%
COc1ccccc1/C=C/C(=O)Nc1ccc(N2CCOCC2)cc1 4.57%
CC1(C)CC2(CC(C)(C)N1)OC(=O)N1CCc3ccccc3C12C (stereo not given) 3.75%
CC(C)(C)c1ccc(S(=O)(=O)NCc2ccc(C(=O)N3CCCC3)cc2)cc1 9.2%
CSc1nnnn1CCn1nnnc1SC -0.0116%
O=C(O)c1ccc2c(c1)nnn2C1CCCCC1 4.91%
COC(=O)C1CC(O)CN1C(=O)NC1CCCCC1 (stereo not given) 1.33%
c1ccc(-c2csc(-n3cccn3)n2)cc1 -6.44%
Cc1cc(Cl)ccc1OCC(=O)NCCCN1CCOCC1 4.5%
COc1ccc(NC(=O)N(C)C[C@H]2Oc3c(NS(=O)(=O)c4cccs4)cccc3C(=O)N([C@H](C)CO)C[C@@H]2C)cc1 7.31%
N#CCCCCN1c2cccc3cccc(c23)S1(=O)=O 2.59%
COc1ccc(NC(=O)NC(C)c2ccc3c(c2)OCO3)c(OC)c1 (stereo not given) -8.39%
COc1cccc(S(=O)(=O)Nc2cccc(C(=O)N3CCCCCC3)c2)c1 6.4%
O=C(CN1C(=O)NC2(CCOc3ccccc32)C1=O)c1ccc[nH]1 (stereo not given) -6.54%
O=C(O)CCC(=O)Nc1nc2nc(-c3ccccc3)cc(-c3ccccc3)n2n1 0.643%
COc1ccc(CCC(=O)Nc2sccc2C#N)cc1 -2.95%
CC(C)=CCN1CCN(Cc2cn[nH]c2C2CCCCC2)CC1CCO (stereo not given) -1.15%
O=[N+]([O-])c1ccc(/C=[N+](\[O-])[C@@H]2CCCC[C@@H]2/[N+]([O-])=C/c2ccc([N+](=O)[O-])o2)o1 2.35%
CC[C@]12c3[nH]c4ccccc4c3CCN1C(=O)C(CC(=O)NCCCOC)C[C@@H]2C(=O)N1CCN(C(=O)c2ccco2)CC1 (stereo not given in full) 0.551%
Cc1ccccc1-n1nc(C)c2cc(C(=O)N3CCN(S(=O)(=O)c4ccc(F)cc4)CC3)sc21 6.98%
CC(=O)c1c(C(C)=O)c(C)n(NC(=O)c2ccncc2)c1C 3.24%
COc1ccc(/C=C2\Sc3ccc(C(=O)N4CCCC4)cc3N(C)C2=O)cc1OC -8.78%
CCOc1ccccc1Nc1nc2ccccc2n2cnnc12 0.232%
O=C(COC(=O)CCC(=O)c1cccs1)Nc1ccc(S(=O)(=O)N2CCOCC2)cc1 7.2%
COc1ccc(-c2n[nH]c(=S)n2C2CCCCC2)cc1 5.73%
Cc1cc(Cl)ccc1OCC(=O)N1CCCCC1 5.65%
O=S(=O)(NCCSCc1ccc(Cl)c(Cl)c1)c1ccc2c(c1)OCCO2 0.477%
CN(C)c1nc(C(=O)Nc2ccccc2)nc(N(C)C)n1 -7.21%
O=C(CCc1ccccc1)c1ccc2c(c1)OCCCO2 8.16%
COc1ccc(NS(=O)(=O)c2cccc(C(=O)OCC(=O)Nc3cc(C)on3)c2)cc1 2.59%
Cc1onc(-c2ccccc2)c1C(=O)Nc1c(C)n(C)n(-c2ccccc2)c1=O 1.03%
COc1ccc(N(CC(=O)Nc2ccc(S(=O)(=O)N3CCCC3)cc2)S(C)(=O)=O)cc1OC 1.62%
CC(=O)OCC1OC(OC2C[C@]3(C)C(CC(O)C4C([C@](C)(CCC=C(C)C)OC5OC(CO)C(O)C(O)C5O)CC[C@]43C)[C@@]3(C)CCC(O)C(C)(C)C23)C(O[C@@H]2OC(C)C(O)C(O)C2O)C(O)C1O (stereo not given in full) 5.45%

Pulled one by one from the entries so far (three):
Activity change, negative = inhibition, inactive:
CCOC(=O)c1sc(NC(=O)CSc2nnc(-c3ccc(OC)cc3)n2CCOC)nc1C -4.16%
CC(C)(C)c1ccc(S(=O)(=O)/N=C2\C=C(NS(=O)(=O)c3ccccc3)C(=O)c3ccccc32)cc1 -10.3%
O=C(CN1C(=O)NC2(CCOc3ccccc32)C1=O)c1ccc[nH]1 (stereo not given) -6.54%

Molecules listed so far that have bromine, in the order listed:
Activity change, negative = inhibition, inactive:
Cc1ccc(C(=O)NCc2ccco2)cc1Br -7.8%
CCCCNC(=O)c1nn2cc(Br)cnc2c1Br -2.06%
O=C(NC1CCCc2ccccc21)c1ccc(Br)cc1 (stereo not given) -1.06%
